{"source": "the supplement of paper PMC12889115", "tested_on": "Salmonella enterica serovar Typhimurium SL1344", "experiment": "bacterial growth OD600 after 18 h with compound and polymyxin B; higher = more bacterial growth (less inhibition)", "details": "50 µM, Mueller-Hinton broth", "note": "This is one part of the list. These are raw signals, not scaled to a control.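 First-pass screen: polymyxin B was added at a level that permeabilizes the Salmonella outer membrane while sparing the inner membrane. DMSO wells, with and without polymyxin B, defined maximum growth. Because plates differed from one another, each plate's data were ranked separately and the compounds with the lowest OD600 were carried forward as hits.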"}
{"smiles": "COc1cccc(CC(C2CCN(C(=O)c3ccc(C)cc3C)CC2)N(C)C(=O)CC(C)C)c1", "note": "(centres undefined)", "values": [{"measurement": "bacterial growth OD600", "setting": "polymyxin B 0.75 µg/mL", "result": 0.006}]}
{"smiles": "COCC1CCN(C(=O)c2cc(COc3cccc(C(C)=O)c3)[nH]n2)C1", "note": "(centres undefined)", "values": [{"measurement": "bacterial growth OD600", "setting": "polymyxin B 1 µg/mL", "result": 0.954}]}
{"smiles": "c1cncc(COC2CCN(Cc3nc(-c4ccc5c(c4)OCO5)no3)CC2)c1", "values": [{"measurement": "bacterial growth OD600", "setting": "polymyxin B 1 µg/mL", "result": 0.908}]}
{"smiles": "CCN1CCN(C2(C(=O)N3CC[C@H](O)C3)Cc3ccccc3C2)CC1", "values": [{"measurement": "bacterial growth OD600", "setting": "polymyxin B 0.75 µg/mL", "result": 0.848}]}
{"smiles": "COC(=O)C1CCN(C(=O)C2CCC(=O)N(CCCc3ccccc3)C2)CC1", "note": "(centres undefined)", "values": [{"measurement": "bacterial growth OD600", "setting": "polymyxin B 1 µg/mL", "result": 0.965}]}
{"smiles": "Cc1nc2ccccc2n1Cc1cc(C(=O)N(C)Cc2ccsc2)n[nH]1", "values": [{"measurement": "bacterial growth OD600", "setting": "polymyxin B 1 µg/mL", "result": 0.927}]}
{"smiles": "CCOC(=O)C1(Cc2ccccc2C)CCCN(C(=O)c2sccc2C)C1", "note": "(centres undefined)", "values": [{"measurement": "bacterial growth OD600", "setting": "polymyxin B 1 µg/mL", "result": 0.009}]}
{"smiles": "O=C(c1ccccc1)N1CCCC(Nc2ccc(F)cc2)C1", "note": "(centres undefined)", "values": [{"measurement": "bacterial growth OD600", "setting": "polymyxin B 1 µg/mL", "result": 0.873}]}
{"smiles": "CN(CCc1ccccc1)C1(C(=O)NCc2ccncc2)Cc2ccccc2C1", "values": [{"measurement": "bacterial growth OD600", "setting": "polymyxin B 1 µg/mL", "result": 0.737}]}
